Reference: PubChem BioAssay AID1159578 (Peter MacCallum Cancer Centre, 2015)
The deposit covers about 18,000 reagents; below is a random part of them. In the full data, about 1,030 (5.7%) got an active call. 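Inactive calls also include pools with fewer than 3300 nuclei, whose migration was not assessed.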 The raw values are shown without normalisation. Reagents against one gene are numbered here. Not all columns of the deposit are shown.

Purpose: 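Genome-wide hunt for genes controlling movement of lymphatic endothelial cells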 (primary screen)
System: human lymphatic endothelial cells
Reagent: siRNA pool against human genes, 40 nM
Duration: 48 h after transfection
Read-out: 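High-content imaging of dye-stained cells in a scratch assay measures filled wound area and nuclei per well; duplicate means given as ratio to mock and robust z-score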
Reading the numbers: migration robust z-score: higher = faster migration into the scratch; nuclei per well: higher = more cells in the well
Rule for the call: 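Migration changed when robust z exceeds 2 or falls below -2 and mean nuclei number is at least 3300; otherwise not called changed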
Calls: active = migration changed; inactive = no migration change, or too few cells

{"gene": "DSTYK", "reagent no.": 1, "migration robust z-score": -2.05, "migration class with cell-count check": "migration z below -2; enough cells", "nuclei per well, duplicate mean": 5460, "activity call": "active"}
{"gene": "HCN2", "reagent no.": 1, "migration robust z-score": -0.29, "migration class with cell-count check": "migration z between -2 and 2; enough cells", "nuclei per well, duplicate mean": 4823, "activity call": "inactive"}
{"gene": "MS4A2", "reagent no.": 1, "migration robust z-score": 0, "migration class with cell-count check": "migration z between -2 and 2; enough cells", "nuclei per well, duplicate mean": 5128, "activity call": "inactive"}
{"gene": "ZNF235", "reagent no.": 1, "migration robust z-score": -0.16, "migration class with cell-count check": "migration z between -2 and 2; enough cells", "nuclei per well, duplicate mean": 6023, "activity call": "inactive"}
{"gene": "GMFB", "reagent no.": 1, "migration robust z-score": 0.82, "migration class with cell-count check": "migration z between -2 and 2; enough cells", "nuclei per well, duplicate mean": 5799, "activity call": "inactive"}
{"gene": "KCNH1", "reagent no.": 1, "migration robust z-score": 0.1, "migration class with cell-count check": "migration z between -2 and 2; enough cells", "nuclei per well, duplicate mean": 5617, "activity call": "inactive"}
{"gene": "ARHGDIB", "reagent no.": 1, "migration robust z-score": 0.67, "migration class with cell-count check": "migration z between -2 and 2; enough cells", "nuclei per well, duplicate mean": 5562, "activity call": "inactive"}
{"gene": "CDCA4", "reagent no.": 1, "migration robust z-score": 0.22, "migration class with cell-count check": "migration z between -2 and 2; enough cells", "nuclei per well, duplicate mean": 6040, "activity call": "inactive"}
{"gene": "PPP3CA", "reagent no.": 1, "migration robust z-score": 0.6, "migration class with cell-count check": "migration z between -2 and 2; enough cells", "nuclei per well, duplicate mean": 6642, "activity call": "inactive"}
{"gene": "OR4K5", "reagent no.": 1, "migration robust z-score": -0.74, "migration class with cell-count check": "migration z between -2 and 2; enough cells", "nuclei per well, duplicate mean": 4576, "activity call": "inactive"}
{"gene": "NNMT", "reagent no.": 1, "migration robust z-score": -1.5, "migration class with cell-count check": "migration z between -2 and 2; enough cells", "nuclei per well, duplicate mean": 5216, "activity call": "inactive"}
{"gene": "ACOX1", "reagent no.": 1, "migration robust z-score": 2.02, "migration class with cell-count check": "migration z above 2; enough cells", "nuclei per well, duplicate mean": 5589, "activity call": "active"}
{"gene": "PCSK1N", "reagent no.": 1, "migration robust z-score": -1.46, "migration class with cell-count check": "migration z between -2 and 2; enough cells", "nuclei per well, duplicate mean": 3434, "activity call": "inactive"}
{"gene": "P2RX3", "reagent no.": 1, "migration robust z-score": -0.21, "migration class with cell-count check": "migration z between -2 and 2; enough cells", "nuclei per well, duplicate mean": 5061, "activity call": "inactive"}
{"gene": "CSAG2", "reagent no.": 1, "migration robust z-score": -1.34, "migration class with cell-count check": "migration z between -2 and 2; enough cells", "nuclei per well, duplicate mean": 6443, "activity call": "inactive"}
{"gene": "CSAG2", "reagent no.": 2, "migration robust z-score": -0.9, "migration class with cell-count check": "migration z between -2 and 2; enough cells", "nuclei per well, duplicate mean": 4676, "activity call": "inactive"}
{"gene": "ZC3H8", "reagent no.": 1, "migration robust z-score": -0.73, "migration class with cell-count check": "migration z between -2 and 2; enough cells", "nuclei per well, duplicate mean": 6379, "activity call": "inactive"}
{"gene": "LECT2", "reagent no.": 1, "migration robust z-score": 1.52, "migration class with cell-count check": "migration z between -2 and 2; enough cells", "nuclei per well, duplicate mean": 7199, "activity call": "inactive"}
{"gene": "EYS", "reagent no.": 1, "migration robust z-score": -0.6, "migration class with cell-count check": "migration z between -2 and 2; enough cells", "nuclei per well, duplicate mean": 5062, "activity call": "inactive"}
{"gene": "ZBTB10", "reagent no.": 1, "migration robust z-score": 0.5, "migration class with cell-count check": "migration z between -2 and 2; enough cells", "nuclei per well, duplicate mean": 5252, "activity call": "inactive"}
{"gene": "GBA1", "reagent no.": 1, "migration robust z-score": -3.82, "migration class with cell-count check": "migration z below -2; enough cells", "nuclei per well, duplicate mean": 4138, "activity call": "active"}

2 neighbouring entries already listed, for reference:
{"gene": "PPP3CA", "reagent no.": 1, "migration robust z-score": 0.6, "migration class with cell-count check": "migration z between -2 and 2; enough cells", "nuclei per well, duplicate mean": 6642, "activity call": "inactive"}
{"gene": "OR4K5", "reagent no.": 1, "migration robust z-score": -0.74, "migration class with cell-count check": "migration z between -2 and 2; enough cells", "nuclei per well, duplicate mean": 4576, "activity call": "inactive"}
